Test results from publication doi:10.1101/2022.09.13.507805.
Where two headings read alike, the source gives them in different places. Results are given in words; binding and its absence hold for the method and conditions named. Binding seen in cells or lysates may run through a third protein. Some entries that bind do so weakly or less than the wild type. Sequences can lack the tags named with a protein.

By UniProt entry, the sequences of proteins in these tests, tags left out.
UniProt Q96704: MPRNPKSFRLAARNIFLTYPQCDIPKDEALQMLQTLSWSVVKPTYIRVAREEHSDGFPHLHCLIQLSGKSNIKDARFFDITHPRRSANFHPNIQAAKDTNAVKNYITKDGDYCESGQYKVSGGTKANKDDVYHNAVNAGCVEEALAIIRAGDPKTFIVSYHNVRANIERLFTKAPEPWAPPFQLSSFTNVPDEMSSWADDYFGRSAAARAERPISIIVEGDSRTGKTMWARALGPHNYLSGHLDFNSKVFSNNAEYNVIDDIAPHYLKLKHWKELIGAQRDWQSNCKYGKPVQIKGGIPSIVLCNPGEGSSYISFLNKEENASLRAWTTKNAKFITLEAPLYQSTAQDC

Tests used:
Test in all cases: co-IP
[1] = target: T1, FM-RAD51 (Flag-4Myc-tagged RAD51) (Arabidopsis thaliana) (UniProt P94102)
T1 sequence: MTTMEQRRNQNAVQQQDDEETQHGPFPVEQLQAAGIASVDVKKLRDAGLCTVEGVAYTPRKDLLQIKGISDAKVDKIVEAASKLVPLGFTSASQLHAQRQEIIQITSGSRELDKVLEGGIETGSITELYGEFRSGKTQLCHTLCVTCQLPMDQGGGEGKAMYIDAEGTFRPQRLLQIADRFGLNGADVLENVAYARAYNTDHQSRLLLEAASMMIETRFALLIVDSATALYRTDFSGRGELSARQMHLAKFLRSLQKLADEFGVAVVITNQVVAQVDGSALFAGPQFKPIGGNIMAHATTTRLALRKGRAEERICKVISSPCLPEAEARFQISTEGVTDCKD

[2] = target: T2, HA-BRCA1 (HA3-tagged BRCA1) (Arabidopsis thaliana) (UniProt Q8RXD4)
T2 sequence: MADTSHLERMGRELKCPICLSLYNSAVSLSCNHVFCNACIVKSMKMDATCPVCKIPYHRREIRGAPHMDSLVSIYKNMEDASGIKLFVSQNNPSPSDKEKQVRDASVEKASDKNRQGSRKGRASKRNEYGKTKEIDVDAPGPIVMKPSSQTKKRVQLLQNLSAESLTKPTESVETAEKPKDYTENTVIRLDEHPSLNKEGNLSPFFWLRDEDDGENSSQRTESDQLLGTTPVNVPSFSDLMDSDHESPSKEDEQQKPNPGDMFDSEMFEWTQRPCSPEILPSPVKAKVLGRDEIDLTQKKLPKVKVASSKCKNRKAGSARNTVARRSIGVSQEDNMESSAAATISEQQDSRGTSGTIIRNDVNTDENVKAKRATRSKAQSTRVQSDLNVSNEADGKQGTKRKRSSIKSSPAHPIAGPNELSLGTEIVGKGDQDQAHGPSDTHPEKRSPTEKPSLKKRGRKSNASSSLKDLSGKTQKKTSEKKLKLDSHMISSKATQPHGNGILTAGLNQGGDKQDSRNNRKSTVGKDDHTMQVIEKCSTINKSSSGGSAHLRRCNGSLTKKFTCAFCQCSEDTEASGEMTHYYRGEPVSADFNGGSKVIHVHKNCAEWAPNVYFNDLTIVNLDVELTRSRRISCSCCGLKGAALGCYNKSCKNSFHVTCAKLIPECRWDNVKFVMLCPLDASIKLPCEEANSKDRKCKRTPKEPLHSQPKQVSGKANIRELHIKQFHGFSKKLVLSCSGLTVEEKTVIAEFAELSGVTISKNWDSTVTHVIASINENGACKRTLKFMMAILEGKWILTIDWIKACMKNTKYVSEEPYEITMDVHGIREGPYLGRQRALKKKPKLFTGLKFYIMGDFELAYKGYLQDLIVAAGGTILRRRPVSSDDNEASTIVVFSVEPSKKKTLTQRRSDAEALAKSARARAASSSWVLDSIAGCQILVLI

[3] = target: T1, FM-RAD51 (Flag-4Myc-tagged RAD51) (Arabidopsis thaliana); remark: listed apart in the source
[4] = target: FM-Rep (Flag-4Myc-tagged Rep of CaLCuV) (Cabbage Leaf Curl Virus (CaLCuV)) (UniProt Q96704)
[5] = target: T3, FM-CYCB1 (Flag-4Myc-tagged CYCB1;1) (Arabidopsis thaliana) (UniProt P30183)
T3 sequence: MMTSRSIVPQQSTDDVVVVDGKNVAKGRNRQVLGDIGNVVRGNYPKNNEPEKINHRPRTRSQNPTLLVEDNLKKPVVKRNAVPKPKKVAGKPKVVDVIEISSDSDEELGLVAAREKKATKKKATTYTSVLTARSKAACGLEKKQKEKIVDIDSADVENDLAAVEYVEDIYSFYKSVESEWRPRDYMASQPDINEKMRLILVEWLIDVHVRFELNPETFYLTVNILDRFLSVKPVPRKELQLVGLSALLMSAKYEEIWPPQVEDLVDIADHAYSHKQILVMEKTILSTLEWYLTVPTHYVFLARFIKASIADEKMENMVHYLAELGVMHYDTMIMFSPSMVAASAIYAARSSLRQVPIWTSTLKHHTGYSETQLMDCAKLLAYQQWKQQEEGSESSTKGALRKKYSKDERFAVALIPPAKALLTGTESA

“HA-Rep (HA-tagged Rep of CaLCuV) (from UniProt Q96704 1-349)” was tested, and the binding [1] was “binds”.

B1: FM-RAD51 (Flag-4Myc-tagged RAD51) (protein, UniProt P94102 1-342)
chain: MTTMEQRRNQNAVQQQDDEETQHGPFPVEQLQAAGIASVDVKKLRDAGLCTVEGVAYTPRKDLLQIKGISDAKVDKIVEAASKLVPLGFTSASQLHAQRQEIIQITSGSRELDKVLEGGIETGSITELYGEFRSGKTQLCHTLCVTCQLPMDQGGGEGKAMYIDAEGTFRPQRLLQIADRFGLNGADVLENVAYARAYNTDHQSRLLLEAASMMIETRFALLIVDSATALYRTDFSGRGELSARQMHLAKFLRSLQKLADEFGVAVVITNQVVAQVDGSALFAGPQFKPIGGNIMAHATTTRLALRKGRAEERICKVISSPCLPEAEARFQISTEGVTDCKD
B1 was tested, and the binding [2] was “binds”.

B2: HA-RPA1A (HA3-tagged RPA1A) (protein, UniProt Q9SKI4 1-640)
chain: MPVSLTPNAITAIHDGDVNLKPLLQVLEIKMIGRSQERSQERYRFLISDGVSAQHAMVAVQLNDRVKSGQFEKGSIVQLIDYICSDVKGRKLIVVLNMETIVQQSETIGNPTIFGETDTEAQKTFSGTGNIPPPNRVVFNEPMVQHSVNRAPPRGVNIQNQANNTPSFRPSVQPSYQPPASYRNHGPIMKNEAPARVIPIAALNPYQGRWAIKARVTAKGDIRRYNNAKGDGKVFSFDLLDYDGGEIRVTCFNALVDRFYDVTEVGKVYLISKGSLKPAQKNFNHLKNEWEIFLESTSTVELCPDEDGSIPKQQFSFRPISDIENAENNTILDVIGVVTSVNPSVPILRKNGMETHRRILNLKDESGKAVEVTLWGEFCNRDGRQLEEMVDSAFHPVLAIKAGKVSDFSGKSVGTISSTQLFINPDFPEAHKLRTWFDYGGKDTASFSISRDTMPGGVSRNEIRKNVSQIKEEGLGRSDKPDWITVKATISFIKTDSFCYTACPLMIGDKQCNKKVTRSGTNRWLCDRCNQESDECDYRYLLQVQIQDHTGLTWITAFQETGEEIMGCPAKKLYAMKYELEKEEEFAEIVRDRLFHQYMLKLKIKEESYGDEQRVKMTVVKVDKVNYTSESKYMLDLLVR
For B2, the binding [3] was “binds” and the binding [4] was “binds”.

B3: HA-RAD51 (HA3-tagged RAD51) (protein, UniProt P94102 1-342)
chain: MTTMEQRRNQNAVQQQDDEETQHGPFPVEQLQAAGIASVDVKKLRDAGLCTVEGVAYTPRKDLLQIKGISDAKVDKIVEAASKLVPLGFTSASQLHAQRQEIIQITSGSRELDKVLEGGIETGSITELYGEFRSGKTQLCHTLCVTCQLPMDQGGGEGKAMYIDAEGTFRPQRLLQIADRFGLNGADVLENVAYARAYNTDHQSRLLLEAASMMIETRFALLIVDSATALYRTDFSGRGELSARQMHLAKFLRSLQKLADEFGVAVVITNQVVAQVDGSALFAGPQFKPIGGNIMAHATTTRLALRKGRAEERICKVISSPCLPEAEARFQISTEGVTDCKD
In the case of B3, the binding [5] is reported as “binds”.
